Data taken from PubChem BioAssay AID504834 (National Center for Advancing Translational Sciences (NCATS), 2011).
In all, about 320,000 compounds went through this assay and about 22,000 (6.9%) were called active. The shares of active, inactive and inconclusive entries below differ from those in the screen. Calls follow the shape of the dose curve; as a rule, active = well fitted inhibition curve with a large enough effect; inconclusive = small, poorly fitted or top-dose-only effect, or another doubt; inactive = no such curve, though single readings can be large or run the other way. Potencies beside an inconclusive call are fits to weak or partial responses and may not hold up.

Experiment: Primary qHTS for delayed death inhibitors of the malarial parasite plastid, 96 hour incubation
Conditions: P. falciparum luciferase reporter growth; series mostly up to 28.7 µM; activity change, negative = inhibition: at the top concentration
Method in brief: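 Readout is luminescence from an integrated firefly luciferase in P. falciparum. Red cells, 2% hematocrit and 0.05% parasitemia final, were cultured with compound through two parasite generations (96 hours) at 37 C, 5% CO2.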
% is scaled to controls: 0 for no effect and ±100 for the full control effect; potency is read from the fitted curve at half-maximal effect.

SMILES | activity change, negative = inhibition | Potency
O=C(CSc1ncccc1-c1nc2ccccc2[nH]1)N1CCN(c2ccccc2F)CC1 | inactive: 0% | 
CC1CCCC(C)N1C(=O)CSc1nnnn1-c1cccc2c1CCCC2 (stereo not drawn) |  | inconclusive: 10.4 µM [inhibitor, single point]
CC(C)(O)c1nnn(-c2ccccc2)c1C(F)(F)F |  | inconclusive: 3.7 µM [inhibitor, full curve]
CC(=O)c1ccc(OCCCC(=O)Nc2ccc(S(=O)(=O)N3CCOCC3)cc2)cc1 |  | inconclusive: 18.5 µM [inhibitor, single point]
Cc1ccc(/C=N/NC(=O)c2ccccc2OCc2ccc(F)cc2)o1 |  | inconclusive: 11.7 µM [inhibitor, single point]
O=C1[C@H]2[C@@H](c3ccc(F)cc3)N3C(=O)N(c4cccc(Cl)c4)C(=O)[C@@]3(Cc3ccc(Cl)cc3)[C@H]2C(=O)N1C1CCCCC1 |  | active: 5.22 µM
COc1ccc(NC(=O)Nc2ccc(Br)cn2)cc1OC |  | inconclusive: 0.0026 µM [inhibitor, full curve, poor fit]
CCOc1ccc(N2C(=O)Nc3ccccc3C2(O)C(=O)NCc2ccc3c(c2)OCO3)cc1 (stereo not drawn) |  | inconclusive: 11.7 µM [inhibitor, partial curve, poor fit]
CCNc1nc(NCC)n2c(SCC(=O)Nc3ccc(OC)c(OC)c3)nnc2n1 |  | inconclusive: 2.94 µM [inhibitor, partial curve, poor fit]
Cc1nn(CC(=O)N(C)C2CCS(=O)(=O)C2)c(C)c1S(=O)(=O)N(C)C (stereo not drawn) |  | inconclusive: 18.5 µM [inhibitor, single point]
O=C(NCCN1CCCCC1)c1cc(COc2c(F)cccc2F)on1 |  | inconclusive: 11.7 µM [inhibitor, single point]
CCn1cc(C(=O)NCCCN2CCCC(C)C2)c(=O)c2cc(S(=O)(=O)N3CCc4ccccc4C3)ccc21 (stereo not drawn) |  | inconclusive: 5.22 µM [inhibitor, partial curve, poor fit]
O=c1oc2cc(Br)ccc2n1CSC1=NCCS1 | inactive: -12.5% | 
COc1ccc(S(=O)(=O)N2N=C(C)Oc3ccccc3C2=O)cc1 | inactive: 6.74% | 
CCCCn1c(N)c(N(CCOC)C(=O)CN2CC=C(c3ccccc3)CC2)c(=O)[nH]c1=O |  | inconclusive: 0.928 µM [inhibitor, partial curve]
O=C(NCCN1CCCCC1)Nc1ccc(F)cc1 |  | inconclusive: 18.5 µM [inhibitor, single point]
c1cncc(-c2noc(-c3ccc4ccccc4c3)n2)c1 | inactive: 250% | 
C=CCOn1c(=O)c(-c2ccc(Br)cc2)[n+]([O-])c2ccccc21 | inactive: -5.27% | 
Cc1ccc2c(cnn2C(=O)CCC(=O)NCc2cccc(Br)c2)c1 |  | active: 2.62 µM
O=C(CN(C(=O)Cn1nnc(-c2cccs2)n1)c1cnc2ccccc2c1)NCC1CCCO1 (stereo not drawn) |  | active: 14.7 µM
Cc1ccc(C)c(S(=O)(=O)N2CCN(C(=O)c3cc(-c4cccs4)nn3-c3ccccc3)CC2)c1 |  | active: 13.1 µM
O=C(C1CC1)N1CCC(c2nc(-c3ccc(S(=O)(=O)N4CCCC4)cc3)no2)CC1 |  | inconclusive: 7.38 µM [inhibitor, partial curve, poor fit]

Quoted at random: two records from the list.
SMILES | activity change, negative = inhibition | Potency
COc1ccc(S(=O)(=O)N2N=C(C)Oc3ccccc3C2=O)cc1 | inactive: 6.74% | 
O=C(CSc1ncccc1-c1nc2ccccc2[nH]1)N1CCN(c2ccccc2F)CC1 | inactive: 0% | 

Sorted by number of heavy atoms (low to high): part of the list above
SMILES | activity change, negative = inhibition | Potency
CC1CCCC(C)N1C(=O)CSc1nnnn1-c1cccc2c1CCCC2 (stereo not drawn) |  | inconclusive: 10.4 µM [inhibitor, single point]
O=C(C1CC1)N1CCC(c2nc(-c3ccc(S(=O)(=O)N4CCCC4)cc3)no2)CC1 |  | inconclusive: 7.38 µM [inhibitor, partial curve, poor fit]
CC(=O)c1ccc(OCCCC(=O)Nc2ccc(S(=O)(=O)N3CCOCC3)cc2)cc1 |  | inconclusive: 18.5 µM [inhibitor, single point]

Later entries:

SMILES | activity change, negative = inhibition | Potency
Cn1nc(NC(=O)CC(C)(C)CC(=O)O)c2ccccc21 | inactive: 4.89% | 
COc1cc(S(=O)(=O)N2CCC(O)(c3cccc(C(F)(F)F)c3)CC2)ccc1-n1cnnn1 |  | inconclusive: 5.22 µM [inhibitor, partial curve, poor fit]
O=C(Nc1nnc(SCc2ccc(F)cc2)s1)C1=COCCO1 |  | inconclusive: 18.5 µM [inhibitor, single point]
O=C(Nc1ccc(S(=O)(=O)N2CCCCC2)cc1)c1ccc(=O)[nH]c1 |  | inconclusive: 18.5 µM [inhibitor, single point]
O=C(O)c1cccc(N2C(=O)CSC2=S)c1 |  | active: 5.86 µM
COc1ccccc1CCNC(=O)C(=O)NCCC1CCCCN1S(=O)(=O)c1cccs1 (stereo not drawn) |  | inconclusive: 7.38 µM [inhibitor, partial curve]
COc1ccc(CCNC(=O)CSc2nc3ncccc3[nH]2)c(OC)c1 |  | inconclusive: 3.29 µM [inhibitor, partial curve]
S=C(NCCc1ccccn1)Nc1ccc(Cl)c(Cl)c1 |  | inconclusive: 18.5 µM [inhibitor, single point]
Cc1nnn(C23C[C@@H]4C[C@@H](CC(C(=O)N5CCN(c6ccccc6)CC5)(C4)C2)C3)n1 | inactive: -20% | 
CCCCS(=O)(=O)Nc1ccc(C)cn1 | inactive: 18% | 
C=CCOc1ccc(C2NC(=S)NC3=C2CCc2ccccc23)cc1 (stereo not drawn) |  | inconclusive: 5.86 µM [inhibitor, partial curve, poor fit]
N#CC12CCCCC1CC1CCCCC1(C#N)N2N (stereo not drawn) |  | inconclusive: 5.22 µM [inhibitor, partial curve, poor fit]
CC#CC(=O)NC1CCCN(C2Cc3ccccc3C2)C1 (stereo not drawn) |  | inconclusive: 14.7 µM [inhibitor, partial curve, poor fit]
C=CCNC(=O)c1onc(CS(=O)(=O)c2cc(C)cc(C)c2)c1C(=O)NCC=C |  | inconclusive: 18.5 µM [inhibitor, single point]
COc1cccc(CN(C)C(=O)C(Cc2ccccc2)NC(=O)c2ccccc2)c1OC (stereo not drawn) |  | inconclusive: 18.5 µM [inhibitor, single point]
O=C(COC(=O)CNC(=O)c1ccco1)Nc1ncc(Cl)cc1Cl | inactive: -12% | 
O=C(Nc1ncc(Cc2ccc(C(F)(F)F)cc2)s1)c1ccc(-c2cccc([N+](=O)[O-])c2)o1 |  | active: 0.37 µM
CCOC(=O)C1CCCN(S(=O)(=O)CCNC(=O)c2ccc3c(c2)OCO3)C1 (stereo not drawn) | inactive: -23% | 
Cc1ccnc(S(=O)(=O)Cc2ccc([N+](=O)[O-])cc2)n1 |  | inconclusive: 10.4 µM [inhibitor, partial curve, poor fit]
Cc1ccc(C(=O)C2=C(O)C(=O)N(CCCN3CCOCC3)C23C(=O)N(C)c2ccccc23)o1 (stereo not drawn) |  | inconclusive: 0.0329 µM [inhibitor, full curve, poor fit]
COc1ccc(C2=NOC(C(=O)NCc3ccco3)C2)cc1OC (stereo not drawn) | inactive: -4.01% | 
